Laboratory results as given in patent publication US20120134979A1, “METHODS AND COMPOSITIONS FOR THE TREATMENT OF SICKLE CELL DISEASE” (priority 2010, published 2012).

Test system: WT mice
Experiment: WT (control) mice treated with PEG-ADA or PSB1115 for 8 weeks
Format: in vivo, mouse
Conditions: 8 weeks treatment
Source text: Mice. Berkley sickle cell disease transgenic mice (SCD Tg mice), expressing exclusively human sickle hemoglobin (HbS) were purchased from The Jackson Laboratory Inc (Paszty, C. Transgenic and gene knock-out mouse models of sickle cell anemia and the thalassemias. Curr Opin Hematol 4, 88-93, 1997). C57BL/6 mice used as controls were purchased from Harlan Laboratories. Adenosine receptor deficient mice were obtained from the following sources: A1R-deficient mice (Jurgen Schnermann, NIDDK, NIH); A2AR-deficient mice (Jiang-Fan Chen, Boston University School of Medicine); A2BR-deficient mice (Michael R. Blackburn, University of Texas-Houston Medical School); and A3R-deficient mice (Marlene Jacobson, Merck Research Laboratories). All receptor deficient mice were backcrossed at least 10 generations onto the C57Blk/6J background and were genotyped according to established protocols (Sun, D., et al. Mediation of tubuloglomerular feedback by adenosine: evidence from mice lacking adenosine receptors. Proc Natl Acad Sci USA 98, 9983-9988, 2001; Nemeth, Z. H., et al. Adenosine receptor activation ameliorates type 1 diabetes. FASEB J, 2007; Chen, J. F., et al. A2A adenosine receptor deficiency attenuates brain injury induced by transient focal ischemia in mice. J Neurosci 19, 9192-9200, 1999; Salvatore, C. A., et al. Disruption of the A3 adenosine receptor gene in mice and its effect on stimulated inflammatory cells. The Journal of Biological Chemistry 275, 4429-4434, 2000). Animals were maintained in accordance with institutional and NIH guidelines under research protocols that were reviewed and approved by the University of Texas Health Science Center at Houston Animal Welfare Committee.
Chronic PEG-ADA therapy. SCD transgenic mice, at eight weeks of age, were divided to two groups. One group was injected with 2.5 U PEG-ADA weekly for 8 weeks. This dosing protocol was designated SCD with PEG-ADA treatment regimen (SCD+PEG-ADA). Another group was injected with normal saline for 8 weeks; it was designated as SCD without PEG-ADA treatment regimen (SCD). Wild-type mice (C57Bl/6) used as control were injected with saline or PEG-ADA as with the SCD groups.
Chronic treatment with A2BR antagonist, PSB1115. SCD transgenic mice or wild type mice (eight weeks of age) were divided to two groups, one groups was injected with 200 μg of PSB1115 (an A2B receptor antagonist: obtained from Tocris Bioscience, St. Louis, Mo.) in PBS, daily for 8 weeks. One of groups was injected with saline.
Mouse organ isolation and histological analysis. Mice were anesthetized and body weight was determined. Organs were isolated and weighed. Half of each organ was quickly frozen in liquid nitrogen and then stored at −80° C. for heme content measurements as described below. The remaining half of each organ was fixed with 4% paraformaldehyde in PBS overnight at 4° C. Fixed tissues were rinsed in PBS, dehydrated through graded ethanol washes, and embedded in paraffin. 5 μm sections were collected on slides and stained with haematoxylin and eosin (H&E). Semiquantification of histological changes was analyzed by Image-Plus, Pro software.

| Molecule | HCT [%] | Hb [g/dL] | MCH [pg] | MCHC [g/dL] | MCV [fL] | RBC [M/μl] | RDW [%] | WBC [k/μl] |
| --- | --- | --- | --- | --- | --- | --- | --- | --- |
| CCCn1c(=O)[nH]c2nc(-c3ccc(S(=O)(=O)O)cc3)[nH]c2c1=O [PSB1115, reference compound] | 45.26 ± 1.64 | 13.28 ± 0.54 | 14.4 ± 0.29 | 29.34 ± 0.41 | 49.12 ± 0.80 | 8.81 ± 0.39 | 14.1 ± 0.67 | 3.89 ± 1.52 |
| PEG-ADA: polyethylene glycol-modified adenosine deaminase, a drug used to lower adenosine concentrations in ADA-deficient humans (protein, UniProt P56658 2-363, looked up, PEGylated) Adenosine deaminase: AQTPAFNKPKVELHVHLDGAIKPETILYYGRKRGIALPADTPEELQNIIGMDKPLSLPEFLAKFDYYMPAIAGCREAVKRIAYEFVEMKAKDGVVYVEVRYSPHLLANSKVEPIPWNQAEGDLTPDEVVSLVNQGLQEGERDFGVKVRSILCCMRHQPSWSSEVVELCKKYREQTVVAIDLAGDETIEGSSLFPGHVKAYAEAVKSGVHRTVHAGEVGSANVVKEAVDTLKTERLGHGYHTLEDATLYNRLRQENMHFEVCPWSSYLTGAWKPDTEHPVVRFKNDQVNYSLNTDDPLIFKSTLDTDYQMTKNEMGFTEEEFKRLNINAAKSSFLPEDEKKELLDLLYKAYGMPSPASAEQCL | 43.83 ± 1.16 | 13.28 ± 0.67 | 15.07 ± 0.46 | 30.27 ± 0.79 | 49.75 ± 0.54 | 8.81 ± 0.18 | 15.05 ± 0.75 | 3.27 ± 0.81 |
